Results deposited as PubChem BioAssay AID1671195 (Yale University, 2021)
Here is one part, drawn at random, of about 22,000 reagents tested. About 1,510 of all reagents (6.9%) were called active. 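Active includes knockdowns raising or lowering LDL uptake; positive z-scores mean more uptake, negative mean less.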

Purpose: 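Regulators of LDL receptor activity judged by labelled LDL uptake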 (primary screen)
Cell system: human Huh7 hepatoma cells
Knock-down reagent: siRNA pool against human genes, 18 nM
Timing: about 2 to 2.5 days of knockdown, then 8 h LDL uptake
Conditions: DiI-labelled LDL at 30 µg/ml for 8 h, in lipoprotein-deficient serum medium
Read-out: 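Fluorescent LDL signal imaged in cells, scaled to the plate median, robust z-score for each replicate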
Reading the numbers: robust z-score: higher = more LDL uptake after knockdown
Rule for the call: 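a gene counts as active if at least two replicate z-scores exceed ±2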

For CYB5A, how do the results read?
robust z-score, replicate 1: -1.35; robust z-score, replicate 2: -1.1; robust z-score, replicate 3: -1.44; call: inactive

How did the screen score SLC10A6?
robust z-score, replicate 1: -1.73; robust z-score, replicate 2: -0.924; robust z-score, replicate 3: -0.97; call: inactive

Which result is listed for TNFRSF10D?
robust z-score, replicate 1: 1.11; robust z-score, replicate 2: 0.747; robust z-score, replicate 3: 1.01; call: inactive

With LOC389147 (retired record), what does the deposit list?
robust z-score, replicate 1: -0.271; robust z-score, replicate 2: -0.624; robust z-score, replicate 3: -0.0891; call: inactive

With POLR3KP2, what was measured?
robust z-score, replicate 1: 0.878; robust z-score, replicate 2: 0.795; robust z-score, replicate 3: 1.75; call: inactive

Copied from above for reference:
TNFRSF10D: robust z-score, replicate 1 = 1.11; robust z-score, replicate 2 = 0.747; robust z-score, replicate 3 = 1.01; call = inactive
LOC389147 (retired record): robust z-score, replicate 1 = -0.271; robust z-score, replicate 2 = -0.624; robust z-score, replicate 3 = -0.0891; call = inactive

The list goes on.
Which result is listed for LOC440194 (retired record)?
robust z-score, replicate 1: 0.423; robust z-score, replicate 2: 0.191; robust z-score, replicate 3: 0.605; call: inactive

With CPB2, what was measured?
robust z-score, replicate 1: -0.353; robust z-score, replicate 2: -0.713; robust z-score, replicate 3: -0.811; call: inactive

Which result is listed for CYTH2?
robust z-score, replicate 1: 0.567; robust z-score, replicate 2: 0.713; robust z-score, replicate 3: 0.396; call: inactive

With FSHR, how do the results read?
robust z-score, replicate 1: 0.106; robust z-score, replicate 2: 0.148; robust z-score, replicate 3: -0.0516; call: inactive

How did the screen score MICB?
robust z-score, replicate 1: -0.332; robust z-score, replicate 2: -0.0363; robust z-score, replicate 3: -0.034; call: inactive

Which result is listed for FGL2?
robust z-score, replicate 1: 0.77; robust z-score, replicate 2: 1.02; robust z-score, replicate 3: -0.103; call: inactive

How did the screen score ZNF547?
robust z-score, replicate 1: 0.18; robust z-score, replicate 2: -0.121; robust z-score, replicate 3: 0.177; call: inactive
